Among the data in PMC11254720 are binding values, retold here.

Amino acid sequences for entries named in this document (tags omitted).
UniProt P54252: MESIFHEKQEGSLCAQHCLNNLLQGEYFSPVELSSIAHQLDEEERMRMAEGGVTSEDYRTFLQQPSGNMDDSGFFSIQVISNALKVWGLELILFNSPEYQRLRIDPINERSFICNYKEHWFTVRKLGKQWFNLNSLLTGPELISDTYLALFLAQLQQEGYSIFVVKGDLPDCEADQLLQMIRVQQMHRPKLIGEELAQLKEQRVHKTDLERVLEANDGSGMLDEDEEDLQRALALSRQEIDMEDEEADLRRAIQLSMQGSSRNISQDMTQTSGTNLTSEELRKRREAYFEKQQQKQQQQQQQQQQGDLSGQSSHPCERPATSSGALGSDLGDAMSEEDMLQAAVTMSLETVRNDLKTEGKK

The target in test [1] is Galectin-9 (endogenous, HCT116) (human (endogenous in HCT116)) (UniProt O00182). Put plainly: co-IP; endogenous proteins of HCT116 cells; immunoprecipitation with anti-Galectin-9, normal rabbit IgG as control; RIPA lysis buffer; Western blotting for ATXN3. (Immunoblotting shows a protein as a band on a membrane.)
The target in test [2] is Flag-Galectin-9-human (human) (UniProt O00182). Put plainly: co-IP; transiently co-transfected HEK293/HEK293T cells; RIPA lysis buffer; immunoprecipitation with protein-G sepharose, five washes with PBS, Western blotting.

No constants are given. Whether binding was seen depends on the method and setting. Binding seen in cells or lysates may run through a third protein. Some entries that bind do so weakly or less than the wild type.

Regarding “ATXN3 (endogenous, HCT116) (from UniProt P54252 1-361) (enzyme)”, the binding result in test [1] is “binds”.
Consider “Myc-ATXN3 (from UniProt P54252 1-361) (enzyme)”, for which, in test [2], the binding result is on record as “binds”.
